The target in this experiment is GST-Survivin (human) (UniProt O15392). Put plainly: GST pull-down on glutathione beads, SDS-PAGE and fluorography.

Protein sequences, listed by entry. Tags and fused reporters are not part of them.
UniProt O15392: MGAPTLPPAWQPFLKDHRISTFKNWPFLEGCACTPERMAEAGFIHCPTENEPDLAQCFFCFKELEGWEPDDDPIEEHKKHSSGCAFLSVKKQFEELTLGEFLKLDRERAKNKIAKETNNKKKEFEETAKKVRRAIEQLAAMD

Results are given in words; binding and its absence hold for the method and conditions named. Binding seen in cells or lysates may run through a third protein. Some entries that bind do so weakly or less than the wild type.

B1: 35S-labeled in vitro translated (IVT) SBP1 protein (protein)
chain: MEHYRKAGSVELPAPSPMPQLPPDTLEMRVRDGSKIRNLLGLALGRLEGGSARHVVFSGSGRAAGKAVSCAEIVKRRVPGLHQLTKLRFLQTEDSWVPASPDTGLDPLTVRRHVPAVWVLLSRDPLDPNECGYQPPGAPPGLGSMPSSSCGPRSRRRARDTRS
modifications: 35S label
Take B1: the binding entry is given as “binds”.

These data come from US20060035359A1.
